Structures can show the parent of a compound that is named as a salt. The list shows a part of the results. Baselines shift from plate to plate; read single values as rough.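 Wild-type or misfolding-prone missense mutant B-domain-deleted factor VIII, fused to Gaussia luciferase, is stably expressed in HEK293 lines. Each score is (mean triplicate-well luminescence minus DMSO mean) divided by DMSO standard deviation. Hits score at least 2; lower scores could stem from decreased secretion or poorer cell viability.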
What was measured:
HEK293 WT BDD-FVIII-Gluc = assay: secreted FVIII-Gluc luciferase Z-score vs DMSO control; higher = more FVIII-Gluc secretion; conditions: 5 µM; 24 h
[1] = system: HEK293 p.N1941S BDD-FVIII-Gluc; assay: as above; conditions: 5 µM; 24 h

CC(C)(C)c1nc(-c2cccc(NS(=O)(=O)c3c(F)cccc3F)c2F)c(-c2ccnc(N)n2)s1
secreted FVIII-Gluc luciferase Z-score (HEK293 WT BDD-FVIII-Gluc): inactive: -4.76
secreted FVIII-Gluc luciferase Z-score [1]: inactive: -0.0971

O=c1oc2cc(O)ccc2s1 [Tioxolone]
secreted FVIII-Gluc luciferase Z-score (HEK293 WT BDD-FVIII-Gluc): inactive: -0.915
secreted FVIII-Gluc luciferase Z-score [1]: inactive: -0.115

C#CCC(Cc1cnc2nc(N)nc(N)c2n1)c1ccc(C(=O)N[C@@H](CCC(=O)O)C(=O)O)cc1 (some centres not stated) [Pralatrexate (Folotyn)]
secreted FVIII-Gluc luciferase Z-score (HEK293 WT BDD-FVIII-Gluc): inactive: -7.72
secreted FVIII-Gluc luciferase Z-score [1]: inactive: -2.92

CC(/C=C1\SC(=S)N(CC(=O)O)C1=O)=C\c1ccccc1 [Epalrestat]
secreted FVIII-Gluc luciferase Z-score (HEK293 WT BDD-FVIII-Gluc): inactive: -0.207
secreted FVIII-Gluc luciferase Z-score [1]: inactive: 0.591

CNC[C@@H](O)c1ccc(O)c(O)c1 [L-Adrenaline (Epinephrine)]
secreted FVIII-Gluc luciferase Z-score (HEK293 WT BDD-FVIII-Gluc): inactive: 0.135
secreted FVIII-Gluc luciferase Z-score [1]: inactive: -1.45

COc1ccc([C@@H]2Sc3ccccc3N(CCN(C)C)C(=O)[C@@H]2OC(C)=O)cc1 [Diltiazem HCl (Tiazac)]
secreted FVIII-Gluc luciferase Z-score (HEK293 WT BDD-FVIII-Gluc): inactive: -4.29
secreted FVIII-Gluc luciferase Z-score [1]: inactive: -2.23

Cn1c(=O)c2c(ncn2CC(O)CO)n(C)c1=O (configuration not stated) [Dyphylline (Dilor)]
secreted FVIII-Gluc luciferase Z-score (HEK293 WT BDD-FVIII-Gluc): inactive: -2.84
secreted FVIII-Gluc luciferase Z-score [1]: inactive: 0.0187

CC12CC3CC(C)(C1)CC(N)(C3)C2 [Memantine HCl (Namenda)]
secreted FVIII-Gluc luciferase Z-score (HEK293 WT BDD-FVIII-Gluc): inactive: 1.25
secreted FVIII-Gluc luciferase Z-score [1]: inactive: -0.825

CCCCCCCCCCCCCCCCO [1-Hexadecanol]
secreted FVIII-Gluc luciferase Z-score (HEK293 WT BDD-FVIII-Gluc): inactive: -2.59
secreted FVIII-Gluc luciferase Z-score [1]: inactive: -1.34

NCCS [Cysteamine HCl]
secreted FVIII-Gluc luciferase Z-score (HEK293 WT BDD-FVIII-Gluc): inactive: 0.181
secreted FVIII-Gluc luciferase Z-score [1]: inactive: 0.958

COc1cc2nc(N3CCN(C(=O)C4CCCO4)CC3)nc(N)c2cc1OC (configuration not stated) [Terazosin HCl (Hytrin)]
secreted FVIII-Gluc luciferase Z-score (HEK293 WT BDD-FVIII-Gluc): inactive: 0.195
secreted FVIII-Gluc luciferase Z-score [1]: inactive: -1.85

— the supplement of paper PMC12024529
